From paper PMC7819943, “Rice protein-binding microarrays: a tool to detect cis-acting elements near promoter regions in rice” come the findings set out here.

The chains behind the UniProt entries cited, without tags or fusion partners.
UniProt Q0JBA9, entry or part of it: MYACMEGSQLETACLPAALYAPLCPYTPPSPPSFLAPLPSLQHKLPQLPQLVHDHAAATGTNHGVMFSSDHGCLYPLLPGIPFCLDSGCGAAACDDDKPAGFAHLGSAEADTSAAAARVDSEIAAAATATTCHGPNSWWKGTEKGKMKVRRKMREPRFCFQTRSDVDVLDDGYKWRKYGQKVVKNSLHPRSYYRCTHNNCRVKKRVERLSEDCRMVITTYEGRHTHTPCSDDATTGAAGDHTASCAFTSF

Some of the results follow.

The experiment deals with OsWRKY34 (Oryza sativa, UniProt Q0JBA9 1-250). Kind of experiment: protein-binding microarray (RPBM); PBS, 2% BSA, 51.3 ng/ul salmon testes DNA, 50 uM zinc acetate, 200 nM TF, 25 C, 1 h; high values mean tight binding. Particulars: protein: recombinant; tags: N-terminal polyhistidine and DsRed monomer fusion (pET32a); label: CyDye5-dUTP incorporated in the synthesized complementary strand; 3' TTTTT single-stranded linker to array surface; dsDNA, one strand shown. The method, boiled down:
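Transcription factors were each fused at the N-terminus to a polyhistidine tag plus DsRed and expressed in E. coli BL21-CodonPlus before Ni–NTA purification. Binding to a double-stranded custom Agilent array was carried out with 200 nM protein at 25 °C for 1 h in PBS, 2% BSA, salmon testes DNA and 50 µM zinc acetate. The binding signal is per-feature fluorescence intensity, in arbitrary units, on an Axon 4000B scanner.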
Regarding “AGTCTGCGCCATGTGTGCTCTTCTTCGACGAGCTTGACTCCGGAGTCACCTAGTGCAG”, the binding signal is 8230 fluorescence intensity (a.u.).

As for “AAACTCTTCGTTCTTATTACTTCGGATCCCATTAGAATGCCGGAGTCACCTAGTGCAG”, the binding signal was 8410 fluorescence intensity (a.u.).

Turning to “TTTCATTCTAACATGTTAATTTCTAAGCCTTAATTAACATCGGAGTCACCTAGTGCAG”, the binding signal is 8450 fluorescence intensity (a.u.).

For “TAAGGTCATTGGTTCCAGTTTTTCCCGGTTCAACCGCCGGCGGAGTCACCTAGTGCAG”, the binding signal is 9480 fluorescence intensity (a.u.).

Regarding “CCATTCTTATCTCCATCTGCTTCAAACATAAAGTCCACACCGGAGTCACCTAGTGCAG”, the binding signal was 10100 fluorescence intensity (a.u.).

Consider “GCACTGCTCGAACTTTGTACTCGCCCGTGAGCTTGACAATCGGAGTCACCTAGTGCAG”, for which the binding signal was 9230 fluorescence intensity (a.u.).

Regarding “GTTCTTGATCTCTCTTCTGCTGGTTACGAAAAATTTGTGTCGGAGTCACCTAGTGCAG”, the binding signal is 10700 fluorescence intensity (a.u.).

Turning to “ACAGATCACCGGCTACAATTCGCGAGCTCCATCAATCCCACGGAGTCACCTAGTGCAG”, the binding signal is 11700 fluorescence intensity (a.u.).

As for “TACGCACCCGTCGCCATCCACACCCCACCATTTTCATCCTCGGAGTCACCTAGTGCAG”, the binding signal was 9030 fluorescence intensity (a.u.).

With “ATCCTTTCACATATGTGTGTGCTGTGATTTTTTTTCTTTCCGGAGTCACCTAGTGCAG”, the binding signal is 11300 fluorescence intensity (a.u.).

Regarding “TCCTTCTCTGTCTTTGGTTTCGATGGTGCGGTATCTCTGACGGAGTCACCTAGTGCAG”, the binding signal was 8560 fluorescence intensity (a.u.).

Consider “ATTGCCGGCGCCGCCTCCGCCTCCATCCTACCGGCCGCATCGGAGTCACCTAGTGCAG”, for which the binding signal was 11200 fluorescence intensity (a.u.).

On to “GAAAGCTCTGATTATCTCCATCTACGGTTCTGCTTCAAGCCGGAGTCACCTAGTGCAG”, for which the binding signal was 8350 fluorescence intensity (a.u.).

For the sequence “AACCCTCACCATTTTACCATGCTCGCAATTCGTTCATCCCCGGAGTCACCTAGTGCAG”, the binding signal is 11000 fluorescence intensity (a.u.).

“GCTTCCATTCGACTCCAGGTTATATCCACCTTTAATTTCTCGGAGTCACCTAGTGCAG”: the binding signal is 8770 fluorescence intensity (a.u.).

On to “TCCTCTCGCTAATATATTTCTCCTCGCTCGATCCATCTTCCGGAGTCACCTAGTGCAG”, for which the binding signal was 11600 fluorescence intensity (a.u.).

With “TTATTCGGCCCGGCCCATTTAAGAGCTCTCGCCCACTTCTCGGAGTCACCTAGTGCAG”, the binding signal was 8540 fluorescence intensity (a.u.).

As to “CCTGCTTCTCCTCGTTGTGTCCTTCTTGTACATTCGCAAGCGGAGTCACCTAGTGCAG”, the binding signal was 8720 fluorescence intensity (a.u.).

As for “GCCTCCCCTTCGCCCGCTCGCTCCGTCGTTAAGCCAGATCCGGAGTCACCTAGTGCAG”, the binding signal is 8240 fluorescence intensity (a.u.).

On to “TGCACAAAGGTTATGCGATATCGACGGTATATTTCCACAACGGAGTCACCTAGTGCAG”, for which the binding signal is 9520 fluorescence intensity (a.u.).

Consider “CCACACAATCGCAATATCTCTAACACTCTCATATATTTCTCGGAGTCACCTAGTGCAG”, for which the binding signal is 9030 fluorescence intensity (a.u.).

“CACACCACAGCGCGCGCCCGCCCGCCAGCCATCCCGCTGCCGGAGTCACCTAGTGCAG”: the binding signal is 8510 fluorescence intensity (a.u.).

On to “ATTGTTCGTTTTATATGAAATTTTTTATAATTAGTATTTTCGGAGTCACCTAGTGCAG”, for which the binding signal was 8410 fluorescence intensity (a.u.).

As for “ATCTCGTCTATGTATCTTCTTATTTTCTCTCCTCTCAGACCGGAGTCACCTAGTGCAG”, the binding signal was 8100 fluorescence intensity (a.u.).

As to “CTTCCATTCTTCTCTCCCTTAGGTGCTAGGCGAACAAAATCGGAGTCACCTAGTGCAG”, the binding signal was 8460 fluorescence intensity (a.u.).

For the sequence “AAGTAGCCCTTCGACCACGCAATGCCCGACCTCGATCATCCGGAGTCACCTAGTGCAG”, the binding signal was 8300 fluorescence intensity (a.u.).

In the case of “CTTTCTCTAGCTAGCTATCTAGTGGATCTCTTTCCCATCTCGGAGTCACCTAGTGCAG”, the binding signal was 9140 fluorescence intensity (a.u.).

As for “TTCCTATAGTGGGGATGGAGGAATAGGGAATATAAGTGATCGGAGTCACCTAGTGCAG”, the binding signal was 8380 fluorescence intensity (a.u.).

“GTACTGGCACCTATATAGCCACCTTGCTCAAGCATACCAACGGAGTCACCTAGTGCAG”: the binding signal was 8220 fluorescence intensity (a.u.).

As for “AGCAGGCCTTCCATCTTCCACTGCACTTGCACTACATATACGGAGTCACCTAGTGCAG”, the binding signal is 11000 fluorescence intensity (a.u.).

In the case of “GCTTACCATGTAGCTTTGTATCCCGCGACTCTTATACAAGCGGAGTCACCTAGTGCAG”, the binding signal is 9500 fluorescence intensity (a.u.).

For the sequence “TATACCCTCGCATGATCCTAGCCGCCGGTTTCTCATCCAACGGAGTCACCTAGTGCAG”, the binding signal is 10900 fluorescence intensity (a.u.).

As for “TGAGTGAATATTTAACTGGCCATGCTGATCGATCGATATTCGGAGTCACCTAGTGCAG”, the binding signal is 8170 fluorescence intensity (a.u.).

For “TCAACTCTTCGTGGATGCTAATTAACCGGTGTTACTACTCCGGAGTCACCTAGTGCAG”, the binding signal is 9070 fluorescence intensity (a.u.).

Take “TTCATGCTCATTCGCGTACCTATTGCCAACCGGACAATGTCGGAGTCACCTAGTGCAG”: the binding signal was 10200 fluorescence intensity (a.u.).

Consider “CCTCCACCTCCCACGCCGGCCGCAGCCGCGCGCTGCCATCCGGAGTCACCTAGTGCAG”, for which the binding signal is 8410 fluorescence intensity (a.u.).

Regarding “TTCCCGCACGCGCACATGCTGCTCTAAAAACTCTTCCGCTCGGAGTCACCTAGTGCAG”, the binding signal is 8780 fluorescence intensity (a.u.).

Consider “CTAACCGTCGCCTTTACCGATTATCCGGTTCTTTACTAACCGGAGTCACCTAGTGCAG”, for which the binding signal was 8150 fluorescence intensity (a.u.).

On to “GGCATCAGATGCGGTTGACTTTAGTTAGATCACTCTGCACCGGAGTCACCTAGTGCAG”, for which the binding signal was 9800 fluorescence intensity (a.u.).

Consider “ACACCGCCGCGCCGCATTGGTTTCATCTCCGCTCTCATCTCGGAGTCACCTAGTGCAG”, for which the binding signal was 8570 fluorescence intensity (a.u.).

“GTTTTCAAAATATATCTTTGACTATGTTTTTTCTATTATACGGAGTCACCTAGTGCAG”: the binding signal is 9360 fluorescence intensity (a.u.).

As for “ACACAATCCCCAACTAAATTTGTTGTATTTTTTTCTCTGACGGAGTCACCTAGTGCAG”, the binding signal was 8310 fluorescence intensity (a.u.).
